Values from PubChem BioAssay AID1159579 (Peter MacCallum Cancer Centre, 2015).
Assay: 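Follow-up screen seeking modulators of motility in lymphatic endothelial cells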 (follow-up of hits). System: human dermal lymphatic endothelial cells. Reagent: single siRNA against human genes, 25 nM. Read-out: 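High content images of wound closure area and cell nuclei counts, each the average of two wells, expressed against mock transfection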. Scale: migration relative to mock: higher = more migration into the scratch; mean nuclei count: higher = more cells remaining. Call rule: 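a ratio of at most 0.6 or at least 1.3 marks altered migration and an active call; a mean nuclei count under 3300 forces an inactive call regardless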. Calls: active = migration changed (impaired or accelerated); inactive = no migration change, or too few cells.
Here is a random part of about 2,000 reagents. In the full data, 549 (27%) got an active call. 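Some migration ratios are negative; siRNAs with too few cells are inactive whatever their migration ratio.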 The numbers tell different reagents against one gene apart. Further read-outs or replicates are left out here. Not stated in the record: the time to read-out.

| target | reagent no. | migration relative to mock | mean nuclei count | activity call |
| --- | --- | --- | --- | --- |
| ZNF654 | 1 | 0.92 | 5212 | inactive |
| ZNF654 | 2 | 0.89 | 3784 | inactive |
| ZNF654 | 3 | 1.1 | 5704 | inactive |
| ZNF654 | 4 | 0.9 | 4521 | inactive |
| RET | 1 | 0.4 | 4074 | active |
| RET | 2 | 0.9 | 6826 | inactive |
| RET | 3 | 0.84 | 5586 | inactive |
| RET | 4 | 0.55 | 5044 | active |
| COL2A1 | 1 | 0.99 | 5226 | inactive |
| COL2A1 | 2 | 0.57 | 4821 | active |
| COL2A1 | 3 | 0.88 | 4936 | inactive |
| COL2A1 | 4 | 0.76 | 5513 | inactive |
| CRBN | 1 | 0.81 | 5084 | inactive |
| CRBN | 2 | 1.02 | 5796 | inactive |
| CRBN | 3 | -0.21 | 2868 | inactive |
| CRBN | 4 | 0.98 | 4884 | inactive |
| USP25 | 1 | -0.14 | 4163 | active |
| USP25 | 2 | -0.71 | 2474 | inactive |
| USP25 | 3 | 0.26 | 4314 | active |
| USP25 | 4 | 0.82 | 5592 | inactive |
| BRD7 | 1 | 0.93 | 5326 | inactive |
| BRD7 | 2 | 0.62 | 3175 | inactive |
| BRD7 | 3 | 1.15 | 5629 | inactive |
| BRD7 | 4 | 0.74 | 5224 | inactive |
| CGN | 1 | 1.04 | 5964 | inactive |
| CGN | 2 | 0.71 | 4993 | inactive |
| CGN | 3 | 0.92 | 7556 | inactive |
| CGN | 4 | 0.76 | 7168 | inactive |

A few values from above:
ZNF654 #1, mean nuclei count = 5212
Value of COL2A1 #4 in “migration relative to mock”: 0.76
